Literature values, collected in patent US7915005B2, “Methods for detecting sleepiness” (Washington University in St. Louis, priority 2005, dated 2011).
At least one structure is not confirmed: it was looked up by name or label, or the drawing left a doubt. Some of these results come from one statement about several compounds together. Some ranges recur; such a range may be that of the whole group of compounds.

Columns and labels:
wild-type flies [1] = details: Shaw et al. 2000; cited from earlier work
wild-type flies [2] = details: literature and unpublished data; cited from earlier work

Row | SMILES | lost sleep recovered (wild-type flies [1]) | waking produced by the drug (wild-type flies [2])
1 | COC(=O)C(c1ccccc1)C1CCCCN1 (stereo not shown) [methylphenidate] | 30-50% | –
2 | COC(=O)[C@H]1[C@@H](OC(=O)c2ccccc2)C[C@@H]2CC[C@H]1N2C [cocaine] | 30-50% | produce waking
3 | CC(N)Cc1ccccc1 (stereo not shown) [amphetamine] | 30-50% | –
